## Results from one PubChem assay

By UniProt entry, the sequences of proteins in these tests, tags left out.
UniProt P04150, whole entry, target on record: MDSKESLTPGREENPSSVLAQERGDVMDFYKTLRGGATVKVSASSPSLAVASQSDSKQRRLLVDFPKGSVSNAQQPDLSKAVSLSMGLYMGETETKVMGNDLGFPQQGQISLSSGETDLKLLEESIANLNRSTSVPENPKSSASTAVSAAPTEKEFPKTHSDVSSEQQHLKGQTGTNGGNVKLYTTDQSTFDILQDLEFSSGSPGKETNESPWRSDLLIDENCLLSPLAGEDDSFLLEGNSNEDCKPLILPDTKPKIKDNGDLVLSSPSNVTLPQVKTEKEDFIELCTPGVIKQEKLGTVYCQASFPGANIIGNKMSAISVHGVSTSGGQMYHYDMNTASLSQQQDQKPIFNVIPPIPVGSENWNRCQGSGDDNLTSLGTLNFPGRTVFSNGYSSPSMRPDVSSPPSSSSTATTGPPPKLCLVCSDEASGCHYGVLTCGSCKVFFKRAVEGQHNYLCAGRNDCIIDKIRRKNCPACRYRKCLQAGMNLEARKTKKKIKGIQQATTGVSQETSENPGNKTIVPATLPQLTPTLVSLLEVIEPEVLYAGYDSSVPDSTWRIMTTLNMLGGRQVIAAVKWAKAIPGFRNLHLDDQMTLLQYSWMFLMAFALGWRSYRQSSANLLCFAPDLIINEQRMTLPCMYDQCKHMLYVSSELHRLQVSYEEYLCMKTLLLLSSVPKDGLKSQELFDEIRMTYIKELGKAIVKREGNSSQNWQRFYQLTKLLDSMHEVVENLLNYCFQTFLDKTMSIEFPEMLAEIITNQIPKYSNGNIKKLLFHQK

From PubChem BioAssay record AID450 (NCATS, 2006).

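Human U2OS bone cancer cells carrying a GFP-tagged glucocorticoid receptor, scored by laser plate cytometry for the receptor moving into the nucleus after 2 hours.
Each compound was given as a 7-step dilution series spanning about 0.6 nM up to 46 µM.
The number is the fitted AC50 potency for inducing nuclear translocation; a lower value means a more potent compound.
Active needs a full or clear partial fitted translocation curve, inconclusive means a weak partial curve or a response only at the highest dose, and inactive means no dose-related response.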

Values are in nM.
All entries here are filed as inconclusive.
These entries are mostly ones the record files as inconclusive; other results of the assay are not listed here.
Potencies fitted to partial, single-point or poorly fitting curves are rough.
The first word of each remark tells which way the curve ran; it can be opposite to the aim of the assay.
An entry listed twice with the same setting is a separate test.

compound,Potency (nM),remark
C[C@@]12C(=O)OC(=O)[C@@]1(C)[C@H]1CC[C@@H]2O1,24000,partial curve
CCCCCCC[n+]1ccc(-c2cc[n+](CCCCCCC)cc2)cc1,34600,single point
CC(=O)O[C@]1(C(C)=O)CC[C@H]2[C@@H]3C[C@H](C)C4=CC(=O)CC[C@]4(C)[C@H]3CC[C@@]21C,134,partial curve
CC(C)(O)/C=C\C(=O)[C@](C)(O)[C@H]1[C@H](O)C[C@]2(C)[C@@H]3CC=C4[C@@H](C=C(O)C(=O)C4(C)C)[C@]3(C)C(=O)C[C@@]12C,7970,partial curve
C[C@@]12C(=O)OC(=O)[C@@]1(C)[C@H]1CC[C@@H]2O1,20200,partial curve
C[C@H](N)Cc1c[nH]c2ccc(OCc3cccs3)cc12,60600,single point
O=C(Nc1ccccc1)N[C@H]1C[C@H](C(=O)O)Nc2cc(Cl)cc(Cl)c21,45699,single point
O=C(O)c1ccccc1-c1c2cc(Br)c(=O)cc-2oc2[c]([Hg])c(O)c(Br)cc12,11100,partial curve
C[N+](C)(C)CCCCCNCC12CC3CC(CC(C3)C1)C2,49900,single point
COc1ccc(-c2nc3cnc(Nc4ccccc4)nc3n(CCC#N)c2=O)cc1,8270,single point
COc1cccc(Cn2c(=O)c(-c3cccc(C#N)c3)nc3cnc(Nc4ccccc4)nc32)c1,7720,partial curve